# Laboratory results: PMC10612036
# Protein sequences, listed by entry. Tags and fused reporters are not part of them. Lines headed by an entry give the natural chain unless they say otherwise; changes in a name come on top.
# UniProt O15393: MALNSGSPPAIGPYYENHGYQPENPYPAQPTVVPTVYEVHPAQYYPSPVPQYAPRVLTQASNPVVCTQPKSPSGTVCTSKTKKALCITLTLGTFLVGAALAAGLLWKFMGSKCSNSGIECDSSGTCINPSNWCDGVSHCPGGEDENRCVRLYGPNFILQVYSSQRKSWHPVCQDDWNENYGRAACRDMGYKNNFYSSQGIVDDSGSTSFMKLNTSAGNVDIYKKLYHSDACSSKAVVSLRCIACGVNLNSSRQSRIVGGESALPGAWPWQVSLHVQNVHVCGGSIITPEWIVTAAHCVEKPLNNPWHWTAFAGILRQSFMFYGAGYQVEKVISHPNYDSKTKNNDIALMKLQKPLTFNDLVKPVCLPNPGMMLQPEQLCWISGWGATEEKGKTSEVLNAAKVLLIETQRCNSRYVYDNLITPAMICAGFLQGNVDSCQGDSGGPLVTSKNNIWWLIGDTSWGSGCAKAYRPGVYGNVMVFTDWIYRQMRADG
# UniProt P00519: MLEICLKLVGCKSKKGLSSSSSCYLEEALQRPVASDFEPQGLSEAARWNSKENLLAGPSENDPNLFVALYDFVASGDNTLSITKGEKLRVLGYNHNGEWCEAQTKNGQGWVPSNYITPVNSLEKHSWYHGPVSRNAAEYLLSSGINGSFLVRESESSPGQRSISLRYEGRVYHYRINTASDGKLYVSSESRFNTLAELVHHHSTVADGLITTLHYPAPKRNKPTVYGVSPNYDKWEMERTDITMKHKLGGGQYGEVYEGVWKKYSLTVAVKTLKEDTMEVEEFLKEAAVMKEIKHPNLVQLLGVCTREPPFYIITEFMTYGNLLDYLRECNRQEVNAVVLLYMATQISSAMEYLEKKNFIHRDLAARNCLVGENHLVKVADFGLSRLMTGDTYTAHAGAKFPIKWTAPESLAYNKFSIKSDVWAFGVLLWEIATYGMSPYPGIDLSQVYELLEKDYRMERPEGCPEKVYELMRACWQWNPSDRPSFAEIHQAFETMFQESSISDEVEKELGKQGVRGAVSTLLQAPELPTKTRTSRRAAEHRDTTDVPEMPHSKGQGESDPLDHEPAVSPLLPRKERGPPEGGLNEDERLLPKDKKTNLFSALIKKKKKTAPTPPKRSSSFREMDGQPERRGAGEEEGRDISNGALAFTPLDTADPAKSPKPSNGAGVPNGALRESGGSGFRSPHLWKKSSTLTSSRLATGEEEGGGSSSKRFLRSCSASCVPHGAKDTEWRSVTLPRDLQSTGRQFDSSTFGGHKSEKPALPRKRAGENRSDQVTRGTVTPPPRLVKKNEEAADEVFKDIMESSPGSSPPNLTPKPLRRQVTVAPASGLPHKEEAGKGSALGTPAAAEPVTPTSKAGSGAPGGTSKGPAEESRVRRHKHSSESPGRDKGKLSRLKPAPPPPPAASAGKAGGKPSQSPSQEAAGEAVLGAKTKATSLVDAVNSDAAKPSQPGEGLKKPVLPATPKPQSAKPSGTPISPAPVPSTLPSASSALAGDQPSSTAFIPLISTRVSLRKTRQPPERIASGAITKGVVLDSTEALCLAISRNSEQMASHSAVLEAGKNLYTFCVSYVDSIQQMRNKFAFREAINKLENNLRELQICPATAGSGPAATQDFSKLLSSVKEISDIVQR
# These are yes or no findings as the source states them, for the method shown. In cells and extracts the contact can be indirect. Binding can be weak; no strength is given.
# Target: TMPRSS2-Flag (wild type transmembrane protease serine 2) (UniProt O15393)
# Assay: co-IP
substance,measurement,value
Δ81Abl1 (constitutively active Abl1 lacking the first 81 aa) (from UniProt P00519) (enzyme),binding,binds
